The source of these data is the supplement of paper PMC7877785.

± gives the uncertainty stated by the source. Many entries were measured with a wide error.

This data set in a line: self-splicing fitness, log relative to wild type (ln ratio); higher = more splicing; Tetrahymena group I intron in knt gene, E. coli kanamycin selection, DiMSum; sequences stand for … in CUCUCU…GGAGGGAAAAGUUAUCAGGCAUGCACCUGGUAGCUAGUCUUUAAACCAAUAGAUUGCAUCGGUUUAAAAGGCAAGACCGUCAAAUUGCGGGAAAGGGGUCAACAGCCGUUCAGUACCAAGUCUCAGGGGAAACUUUGAGAUGGCCUUGCAAAGGGUAUGGUAAUAAGCUGACGGACAUGGUCCUAACCACGCAGCCAAGUCCUAAGUCAACAGAUCUUCUGUUGAUAUGGAUGCAGUUCACAGACUAAAUGUCGGUCGGGGAAGAUGUAUUCUUCUCAUAAGAUAUAGUCGGACCUCUCCUUAAUGGGAGCUAGCGGAUGAAGUGAUGCAACACUGGAGCCGCUGGGAACUAAUUUGUAUGCGAAAGUAUAUUGAUUAGUUUUGGAGUACUCGUGGUCG
The essentials:
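A randomised library covering all eight P1ex-region intron nucleotides was built with the intron in the knt kanamycin-resistance gene on pET-22b(+) and held in E. coli BL21(DE3). Cells were grown overnight at 37°C or 30°C on LB agar, with or without 25 μg/mL kanamycin, plus 100 μg/mL carbenicillin, 50 μM IPTG and 0.2% rhamnose, and pooled colonies were amplicon-sequenced on an Illumina HiSeq 2500. DiMSum fitness is the error-weighted combination of wild-type-normalised replicate fold changes, kanamycin versus none.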

As to CUUCAGCAAUAUUACGCCGA, where the note is “30 °C”, the “self-splicing fitness (ln)” value was -4.26 ± 0.72.
As for GUAUAGCAAUAUUACGGCAC, the “self-splicing fitness (ln)” value (37 °C) is -0.152 ± 0.53.
Take GCCCAGCAAUAUUACGAAGA: the “self-splicing fitness (ln)” value is -1.46 ± 0.12 (30 °C) and -0.344 ± 0.14 (37 °C).
Consider UUGUAGCAAUAUUACGCGGC, for which, where the note is “37 °C”, the “self-splicing fitness (ln)” value was -1.29 ± 0.74.
For the sequence GCGCAGCAAUAUUACGAGCC, the “self-splicing fitness (ln)” value was -3.28 ± 0.74 (30 °C) and -1.54 ± 0.54 (37 °C).
For CGGUAGCAAUAUUACGCUUC, the “self-splicing fitness (ln)” value (30 °C) is -3.87 ± 0.52.
For the sequence CGUGAGCAAUAUUACGUCCC, the “self-splicing fitness (ln)” value (30 °C) was -3.92 ± 0.52.
On the same count and under the same terms, under GUCGAGCAAUAUUACGUUAA stands -4.03 ± 0.74; under AGGGAGCAAUAUUACGCUAA, -2.38 ± 0.76; under CUUAAGCAAUAUUACGAACU, -3.96 ± 0.76.
Regarding GUCGAGCAAUAUUACGCGAU, the “self-splicing fitness (ln)” value (37 °C) is -3.62 ± 0.59.
As for CUCGAGCAAUAUUACGCCCG, under “30 °C”, the “self-splicing fitness (ln)” value is -2.39 ± 0.64.
For the sequence UACGAGCAAUAUUACGCAUC, for the setting “30 °C”, the “self-splicing fitness (ln)” value was -4.38 ± 0.51.
Take ACUUAGCAAUAUUACGCUCC: the “self-splicing fitness (ln)” value (30 °C) is -1.44 ± 0.22 and the “self-splicing fitness (ln)” value (37 °C) stood at 0.041 ± 0.19.
As to GGUAAGCAAUAUUACGAAUU, the “self-splicing fitness (ln)” value (30 °C) was -1.04 ± 0.11 and the “self-splicing fitness (ln)” value (37 °C) is -0.205 ± 0.14.
For UUAGAGCAAUAUUACGUUGG, in that order: -1.89 ± 0.1 and -1.59 ± 0.14.
For AUCGAGCAAUAUUACGAUAG, in that order: -3.68 ± 0.22 and -3.23 ± 0.2.
In the same order, the values of CUGGAGCAAUAUUACGCGAA are 0.285 ± 1.1 and -0.375 ± 0.68.
Consider UCCGAGCAAUAUUACGCUCC, for which the “self-splicing fitness (ln)” value (37 °C) was -1.47 ± 1.2.
Consider CGGAAGCAAUAUUACGUGCC, for which the “self-splicing fitness (ln)” value is, setting by setting: (30 °C) -2.79 ± 1.2; (37 °C) -0.595 ± 1.4.
For UUCGAGCAAUAUUACGGAAC, in that order: -3.85 ± 0.6 and -0.687 ± 0.87.
In the same order, the values of CGGAAGCAAUAUUACGGCCG are -3.66 ± 0.53 and -1.81 ± 0.51.
For CAAGAGCAAUAUUACGGACC, in that order: -2.77 ± 0.76 and -3.77 ± 0.6.
As to UCUUAGCAAUAUUACGCUCA, the “self-splicing fitness (ln)” value was -3.43 ± 1 (30 °C) and -2.61 ± 0.63 (37 °C).
In the same order, the values of CCUGAGCAAUAUUACGCGAC are -1.05 ± 0.67 and 0.193 ± 0.55.
Take CUCAAGCAAUAUUACGACCA: where the note is “30 °C”, the “self-splicing fitness (ln)” value was -3.59 ± 0.52.
Regarding AGACAGCAAUAUUACGUCGG, the “self-splicing fitness (ln)” value was -2.44 ± 0.15 (30 °C) and -0.528 ± 0.15 (37 °C).
On to GCGGAGCAAUAUUACGACUG, for which the “self-splicing fitness (ln)” value (30 °C) is -3.9 ± 1.
In the case of UUGGAGCAAUAUUACGCGCU, the “self-splicing fitness (ln)” value (30 °C) was -2.9 ± 0.61.
For the sequence GCGAAGCAAUAUUACGCCAU, the “self-splicing fitness (ln)” value (30 °C) was -4.25 ± 0.52.
As for CUCUAGCAAUAUUACGAACC, the “self-splicing fitness (ln)” value (37 °C) was -3.09 ± 1.
Same read-out and setting: in the case of GGUGAGCAAUAUUACGCCUC it was -0.835 ± 0.77.
Turning to AAUGAGCAAUAUUACGAAGU, the “self-splicing fitness (ln)” value (30 °C) was -4.04 ± 1.1.
Turning to GCCGAGCAAUAUUACGCCGC, the “self-splicing fitness (ln)” value (37 °C) was -3.01 ± 0.61.
Turning to ACUGAGCAAUAUUACGACGA, the “self-splicing fitness (ln)” value is -1.3 ± 0.13 (30 °C) and -0.569 ± 0.12 (37 °C).
In the same order, the values of GGAGAGCAAUAUUACGCAGU are -2.57 ± 0.69 and -1.92 ± 0.57.
For the sequence CCCGAGCAAUAUUACGCAAC, the “self-splicing fitness (ln)” value reads like this: (30 °C) -2.46 ± 0.51; (37 °C) -2.23 ± 0.34.
UUAGAGCAAUAUUACGAGCC: the “self-splicing fitness (ln)” value (37 °C) is -0.785 ± 0.93.
For the sequence GGCAAGCAAUAUUACGCUGC, the “self-splicing fitness (ln)” value (37 °C) was -2.86 ± 1.1.
With CAUGAGCAAUAUUACGGCCA, where the note is “30 °C”, the “self-splicing fitness (ln)” value is -3.34 ± 1.
For CCUUAGCAAUAUUACGACCU, the “self-splicing fitness (ln)” value was -2.79 ± 0.2 (30 °C) and -1.77 ± 0.29 (37 °C).
CCUUAGCAAUAUUACGGCGC: the “self-splicing fitness (ln)” value (37 °C) is -3.7 ± 0.59.
Regarding UAAGAGCAAUAUUACGAAAC, the “self-splicing fitness (ln)” value (30 °C) was -3.72 ± 0.53.
For UAACAGCAAUAUUACGCUGA, the “self-splicing fitness (ln)” value runs as follows: (30 °C) -3.33 ± 0.2; (37 °C) -1.61 ± 0.1.
In the case of CUAGAGCAAUAUUACGGCGA, under “37 °C”, the “self-splicing fitness (ln)” value was -2.32 ± 0.54.
Take AUUGAGCAAUAUUACGGGGC: the “self-splicing fitness (ln)” value was -3.06 ± 0.26 (30 °C) and -3.09 ± 0.3 (37 °C).
For ACACAGCAAUAUUACGUCCA, the “self-splicing fitness (ln)” value was -1.09 ± 0.089 (30 °C) and -0.474 ± 0.096 (37 °C).
For the sequence UUGCAGCAAUAUUACGUAGC, the “self-splicing fitness (ln)” value (37 °C) was -3.71 ± 0.72.
